Data taken from the supplement of paper PMC10849652.
The list shows a part of the results.

The chains behind the UniProt entries cited, without tags or fusion partners. Where a name states a change or a piece, a line headed by the entry shows the natural chain unless it says otherwise.
UniProt P26368, whole entry, looked up: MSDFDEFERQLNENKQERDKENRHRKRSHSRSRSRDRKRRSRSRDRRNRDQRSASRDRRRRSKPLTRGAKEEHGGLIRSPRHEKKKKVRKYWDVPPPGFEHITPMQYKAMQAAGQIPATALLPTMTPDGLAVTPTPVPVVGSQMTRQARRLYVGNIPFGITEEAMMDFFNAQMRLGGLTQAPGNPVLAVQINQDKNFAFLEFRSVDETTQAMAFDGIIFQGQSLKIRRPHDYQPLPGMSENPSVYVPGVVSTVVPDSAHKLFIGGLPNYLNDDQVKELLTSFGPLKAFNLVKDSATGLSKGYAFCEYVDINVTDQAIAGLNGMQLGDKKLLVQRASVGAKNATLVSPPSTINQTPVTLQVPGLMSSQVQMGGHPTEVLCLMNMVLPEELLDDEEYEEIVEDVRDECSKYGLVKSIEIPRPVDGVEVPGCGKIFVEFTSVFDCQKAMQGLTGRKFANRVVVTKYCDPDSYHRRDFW
UniProt Q9BSL1: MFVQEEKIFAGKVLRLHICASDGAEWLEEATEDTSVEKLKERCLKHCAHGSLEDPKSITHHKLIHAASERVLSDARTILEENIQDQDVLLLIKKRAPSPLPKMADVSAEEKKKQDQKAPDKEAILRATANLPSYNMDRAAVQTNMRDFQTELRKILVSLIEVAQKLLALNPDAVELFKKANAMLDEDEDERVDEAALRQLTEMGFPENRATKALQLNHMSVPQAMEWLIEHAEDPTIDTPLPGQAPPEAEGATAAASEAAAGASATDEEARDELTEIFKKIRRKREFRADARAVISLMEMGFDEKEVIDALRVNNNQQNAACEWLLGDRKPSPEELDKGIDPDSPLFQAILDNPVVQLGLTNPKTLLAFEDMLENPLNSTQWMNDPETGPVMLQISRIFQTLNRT
UniProt Q13630: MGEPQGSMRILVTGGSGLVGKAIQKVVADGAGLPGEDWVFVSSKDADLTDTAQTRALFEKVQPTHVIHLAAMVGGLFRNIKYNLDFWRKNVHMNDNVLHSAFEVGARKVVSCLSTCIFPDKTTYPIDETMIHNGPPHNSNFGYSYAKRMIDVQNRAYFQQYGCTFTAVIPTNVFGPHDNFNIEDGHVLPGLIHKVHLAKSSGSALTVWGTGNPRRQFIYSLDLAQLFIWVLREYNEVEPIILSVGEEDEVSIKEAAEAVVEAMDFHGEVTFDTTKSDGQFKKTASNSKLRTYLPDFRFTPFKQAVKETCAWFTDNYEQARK
UniProt Q99757: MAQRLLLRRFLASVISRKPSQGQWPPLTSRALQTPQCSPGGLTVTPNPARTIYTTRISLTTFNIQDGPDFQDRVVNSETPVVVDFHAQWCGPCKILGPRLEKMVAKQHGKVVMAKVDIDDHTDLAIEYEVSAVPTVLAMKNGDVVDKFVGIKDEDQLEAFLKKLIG
UniProt Q5R3I4: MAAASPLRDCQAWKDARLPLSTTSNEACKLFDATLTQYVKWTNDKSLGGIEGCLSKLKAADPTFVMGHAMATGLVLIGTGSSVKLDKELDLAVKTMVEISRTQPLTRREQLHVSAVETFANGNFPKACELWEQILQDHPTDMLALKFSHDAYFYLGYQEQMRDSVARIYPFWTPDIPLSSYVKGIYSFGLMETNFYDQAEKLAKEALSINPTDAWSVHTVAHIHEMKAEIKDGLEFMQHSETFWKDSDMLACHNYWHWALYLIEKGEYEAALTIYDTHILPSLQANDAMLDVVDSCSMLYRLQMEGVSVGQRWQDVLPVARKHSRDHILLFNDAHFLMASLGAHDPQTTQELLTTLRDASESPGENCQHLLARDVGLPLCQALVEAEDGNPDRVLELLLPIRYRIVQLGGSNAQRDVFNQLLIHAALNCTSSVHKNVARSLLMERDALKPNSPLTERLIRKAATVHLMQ
UniProt Q13509, whole entry, looked up: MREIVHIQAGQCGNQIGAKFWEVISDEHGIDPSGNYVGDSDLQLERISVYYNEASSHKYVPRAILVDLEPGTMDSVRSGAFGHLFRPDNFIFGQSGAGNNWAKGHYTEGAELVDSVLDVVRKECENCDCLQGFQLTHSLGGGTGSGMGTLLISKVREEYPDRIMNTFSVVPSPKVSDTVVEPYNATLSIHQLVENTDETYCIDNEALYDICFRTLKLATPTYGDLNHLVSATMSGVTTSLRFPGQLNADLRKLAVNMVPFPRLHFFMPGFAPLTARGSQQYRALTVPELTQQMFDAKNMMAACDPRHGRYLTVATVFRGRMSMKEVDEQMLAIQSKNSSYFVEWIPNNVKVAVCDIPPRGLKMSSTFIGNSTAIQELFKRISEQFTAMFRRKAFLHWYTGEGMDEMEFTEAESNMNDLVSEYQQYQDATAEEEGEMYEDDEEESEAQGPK
UniProt Q99816: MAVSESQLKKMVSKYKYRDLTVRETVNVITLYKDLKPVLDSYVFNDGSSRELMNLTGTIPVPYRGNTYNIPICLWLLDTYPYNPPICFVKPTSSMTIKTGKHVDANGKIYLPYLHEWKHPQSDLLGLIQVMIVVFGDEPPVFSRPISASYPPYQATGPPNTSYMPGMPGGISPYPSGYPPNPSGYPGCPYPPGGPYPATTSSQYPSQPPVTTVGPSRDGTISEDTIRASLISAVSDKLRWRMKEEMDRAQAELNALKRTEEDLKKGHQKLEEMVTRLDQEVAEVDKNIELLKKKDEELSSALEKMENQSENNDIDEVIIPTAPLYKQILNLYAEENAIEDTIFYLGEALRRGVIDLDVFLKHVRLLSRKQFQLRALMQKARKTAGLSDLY
UniProt Q16763: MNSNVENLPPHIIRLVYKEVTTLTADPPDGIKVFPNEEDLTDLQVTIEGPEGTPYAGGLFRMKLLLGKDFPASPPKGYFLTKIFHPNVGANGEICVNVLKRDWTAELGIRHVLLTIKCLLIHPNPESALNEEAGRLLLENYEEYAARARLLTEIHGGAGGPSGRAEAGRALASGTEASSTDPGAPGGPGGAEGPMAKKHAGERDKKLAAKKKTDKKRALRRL
UniProt O14530: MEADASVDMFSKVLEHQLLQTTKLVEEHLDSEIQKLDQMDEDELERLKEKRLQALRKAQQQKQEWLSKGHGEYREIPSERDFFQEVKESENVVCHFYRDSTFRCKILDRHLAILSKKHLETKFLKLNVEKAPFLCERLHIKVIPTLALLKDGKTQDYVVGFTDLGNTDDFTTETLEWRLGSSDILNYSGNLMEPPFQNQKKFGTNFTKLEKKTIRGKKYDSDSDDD
UniProt Q9NZ09: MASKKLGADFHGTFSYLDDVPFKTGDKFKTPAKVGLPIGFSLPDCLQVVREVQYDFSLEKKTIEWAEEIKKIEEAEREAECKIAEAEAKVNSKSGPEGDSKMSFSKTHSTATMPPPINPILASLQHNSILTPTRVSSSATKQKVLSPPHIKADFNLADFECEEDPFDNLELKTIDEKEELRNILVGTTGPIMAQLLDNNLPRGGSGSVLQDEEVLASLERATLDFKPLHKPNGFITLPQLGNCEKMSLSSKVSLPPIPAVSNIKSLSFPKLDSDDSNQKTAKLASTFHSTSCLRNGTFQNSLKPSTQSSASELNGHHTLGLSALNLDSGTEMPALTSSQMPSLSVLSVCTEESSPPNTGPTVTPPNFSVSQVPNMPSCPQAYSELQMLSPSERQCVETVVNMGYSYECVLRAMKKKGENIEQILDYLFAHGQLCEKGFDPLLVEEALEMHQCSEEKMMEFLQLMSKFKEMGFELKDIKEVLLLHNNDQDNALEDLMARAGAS
UniProt Q8TBC4: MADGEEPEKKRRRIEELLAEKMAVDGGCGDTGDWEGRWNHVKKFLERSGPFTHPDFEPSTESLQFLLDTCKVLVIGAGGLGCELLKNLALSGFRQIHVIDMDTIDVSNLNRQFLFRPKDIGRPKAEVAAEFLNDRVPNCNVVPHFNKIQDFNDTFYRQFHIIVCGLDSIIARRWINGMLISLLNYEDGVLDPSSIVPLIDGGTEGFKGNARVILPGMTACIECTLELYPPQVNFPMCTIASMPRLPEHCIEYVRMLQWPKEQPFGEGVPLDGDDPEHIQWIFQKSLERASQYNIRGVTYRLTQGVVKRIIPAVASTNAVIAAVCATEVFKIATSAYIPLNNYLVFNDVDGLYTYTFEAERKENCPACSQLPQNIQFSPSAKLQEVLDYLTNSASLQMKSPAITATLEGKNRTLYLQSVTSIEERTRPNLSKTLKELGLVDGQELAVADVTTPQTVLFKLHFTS
UniProt Q9H3M7: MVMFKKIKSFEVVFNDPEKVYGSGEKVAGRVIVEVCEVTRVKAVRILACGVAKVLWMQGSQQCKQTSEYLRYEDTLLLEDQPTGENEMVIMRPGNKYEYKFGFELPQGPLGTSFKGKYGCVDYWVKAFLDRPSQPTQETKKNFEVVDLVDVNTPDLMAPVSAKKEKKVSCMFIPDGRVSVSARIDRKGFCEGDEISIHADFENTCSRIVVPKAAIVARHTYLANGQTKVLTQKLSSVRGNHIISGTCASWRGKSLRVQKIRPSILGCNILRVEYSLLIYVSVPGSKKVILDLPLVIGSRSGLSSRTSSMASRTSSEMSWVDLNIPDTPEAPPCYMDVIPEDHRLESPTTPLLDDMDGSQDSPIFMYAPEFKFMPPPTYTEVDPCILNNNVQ
UniProt Q8NBM4: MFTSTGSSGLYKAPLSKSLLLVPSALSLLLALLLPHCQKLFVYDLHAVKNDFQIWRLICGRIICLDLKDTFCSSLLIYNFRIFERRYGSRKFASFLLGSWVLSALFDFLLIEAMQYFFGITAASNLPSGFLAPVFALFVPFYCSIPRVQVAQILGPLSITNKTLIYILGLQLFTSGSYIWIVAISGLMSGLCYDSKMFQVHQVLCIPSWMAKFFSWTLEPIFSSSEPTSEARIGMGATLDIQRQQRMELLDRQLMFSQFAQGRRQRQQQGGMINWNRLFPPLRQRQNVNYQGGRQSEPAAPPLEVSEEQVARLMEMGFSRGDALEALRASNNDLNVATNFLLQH
UniProt Q5VYS8: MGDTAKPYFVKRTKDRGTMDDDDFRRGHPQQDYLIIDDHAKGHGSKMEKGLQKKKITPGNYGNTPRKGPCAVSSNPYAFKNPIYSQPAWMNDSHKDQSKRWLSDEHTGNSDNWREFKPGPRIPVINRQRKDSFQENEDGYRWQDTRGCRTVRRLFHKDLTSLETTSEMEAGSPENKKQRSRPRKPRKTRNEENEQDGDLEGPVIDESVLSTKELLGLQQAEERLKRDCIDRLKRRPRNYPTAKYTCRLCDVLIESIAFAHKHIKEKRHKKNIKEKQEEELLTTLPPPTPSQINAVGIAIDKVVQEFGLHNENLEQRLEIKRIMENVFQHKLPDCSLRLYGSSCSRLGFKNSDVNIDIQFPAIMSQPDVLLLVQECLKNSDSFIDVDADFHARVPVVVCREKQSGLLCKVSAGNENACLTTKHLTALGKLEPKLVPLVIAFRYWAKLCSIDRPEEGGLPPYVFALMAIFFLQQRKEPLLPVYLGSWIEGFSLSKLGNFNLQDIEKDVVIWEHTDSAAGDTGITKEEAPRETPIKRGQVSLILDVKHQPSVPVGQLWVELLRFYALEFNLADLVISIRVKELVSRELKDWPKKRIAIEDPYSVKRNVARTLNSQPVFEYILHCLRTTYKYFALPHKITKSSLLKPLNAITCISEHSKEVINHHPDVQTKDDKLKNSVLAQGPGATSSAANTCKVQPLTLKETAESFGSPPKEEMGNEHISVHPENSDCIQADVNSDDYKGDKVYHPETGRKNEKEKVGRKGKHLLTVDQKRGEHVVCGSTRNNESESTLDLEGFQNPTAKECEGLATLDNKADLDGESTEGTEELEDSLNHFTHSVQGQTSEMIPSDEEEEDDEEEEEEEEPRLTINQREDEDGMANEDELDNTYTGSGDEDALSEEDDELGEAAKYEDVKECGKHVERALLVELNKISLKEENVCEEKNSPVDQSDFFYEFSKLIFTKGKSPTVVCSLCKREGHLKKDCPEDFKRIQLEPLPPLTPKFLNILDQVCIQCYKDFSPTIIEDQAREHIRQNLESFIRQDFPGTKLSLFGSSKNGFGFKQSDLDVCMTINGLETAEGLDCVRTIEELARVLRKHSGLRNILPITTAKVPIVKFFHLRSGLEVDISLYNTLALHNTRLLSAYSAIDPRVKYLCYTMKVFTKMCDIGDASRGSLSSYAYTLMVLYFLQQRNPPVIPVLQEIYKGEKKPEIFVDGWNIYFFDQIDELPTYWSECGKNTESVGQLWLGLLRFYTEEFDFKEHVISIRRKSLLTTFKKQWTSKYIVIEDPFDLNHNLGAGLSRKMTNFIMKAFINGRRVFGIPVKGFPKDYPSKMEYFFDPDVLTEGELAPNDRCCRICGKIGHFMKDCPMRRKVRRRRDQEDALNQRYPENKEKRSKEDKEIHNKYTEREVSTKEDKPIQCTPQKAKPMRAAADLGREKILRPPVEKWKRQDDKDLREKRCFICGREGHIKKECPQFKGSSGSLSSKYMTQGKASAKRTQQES

Tests used:
Test in all cases: log2 fold change, soluble protein after heating vs DMSO (PISA); higher = thermal stabilisation; K562 cells, 10 uM, 30 min; active = over 0.2 and 3.5 SD of the protein, either way, in both replicates (recomputed)
[1] = compound: COC1=CC=C(C=C1)CN2C=CC3=C2C=C(C=C3)C(=O)NO
Outline: (§1)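 Quantification of soluble protein used TMTpro 16plex LC-MS/MS, with channel sums equalised. Samples were the supernatant after 21,000xg for 90 min of pooled aliquots from K562 cells (2×10^6 cells/mL) treated with 10 μM compound for 30 min, heated for 3 min over 48°C-58°C, and extracted in PBS with 0.5% NP-40 at 4°C. Values, from duplicates, describe thermal stability against control samples on a log2 fold-change scale.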

filanesib = compound: CON(C)C(=O)N1N=C(c2cc(F)ccc2F)S[C@@]1(CCCN)c1ccccc1 [filanesib]
Outline: as §1

zotarolimus = compound: CO[C@H]1C[C@@H]2CC[C@@H](C)[C@@](O)(O2)C(=O)C(=O)N2CCCC[C@H]2C(=O)O[C@H]([C@H](C)C[C@@H]2CC[C@H](n3cnnn3)[C@H](OC)C2)CC(=O)[C@H](C)/C=C(\C)[C@@H](O)[C@@H](OC)C(=O)[C@H](C)C[C@H](C)/C=C/C=C/C=C/1C [zotarolimus]
Outline: as §1

idasanutlin = compound: COc1cc(C(=O)O)ccc1NC(=O)[C@@H]1N[C@@H](CC(C)(C)C)[C@](C#N)(c2ccc(Cl)cc2F)[C@H]1c1cccc(Cl)c1F [idasanutlin]
Outline: as §1

alisertib = compound: COc1cc(Nc2ncc3c(n2)-c2ccc(Cl)cc2C(c2c(F)cccc2OC)=NC3)ccc1C(=O)O [alisertib]
Outline: as §1

[2] = compound: COc1cc2nc(-c3cc(F)ccc3O)nc(N[C@@H]3CNC[C@H]3C(C)(C)O)c2cc1OC
Outline: as §1

gefitinib = compound: COc1cc2ncnc(Nc3ccc(F)c(Cl)c3)c2cc1OCCCN1CCOCC1 [gefitinib]
Outline: as §1

[3] = compound: COc1cccc2cc(-c3nc([C@H]4CC[C@H](C(=O)O)CC4)n4ncnc(N)c34)[nH]c12
Outline: as §1

lapatinib = compound: CS(=O)(=O)CCNCc1ccc(-c2ccc3ncnc(Nc4ccc(OCc5cccc(F)c5)c(Cl)c4)c3c2)o1 [lapatinib]
Outline: as §1

pictilisib = compound: CS(=O)(=O)N1CCN(Cc2cc3nc(-c4cccc5[nH]ncc45)nc(N4CCOCC4)c3s2)CC1 [pictilisib]
Outline: as §1

[4] = compound: CS(=O)(=O)c1ccc(-c2cnc(N)c(C(=O)Nc3ccccc3)n2)cc1
Outline: as §1

crizotinib = compound: C[C@@H](Oc1cc(-c2cnn(C3CCNCC3)c2)cnc1N)c1c(Cl)ccc(F)c1Cl [crizotinib]
Outline: as §1

[5] = compound: C[C@@H]1COCCN1C2=NC(=NC(=C2)C3(CC3)S(=O)(=O)C)C4=C5C=CNC5=CC=C4
Outline: as §1

[6] = compound: C[C@H](C1=CC=C(C=C1)C(=O)NC2=C3C=CNC3=NC=C2)N
Outline: as §1

gandotinib = compound: Cc1cc(Nc2cc(CN3CCOCC3)c3nc(C)c(Cc4ccc(Cl)cc4F)n3n2)n[nH]1 [gandotinib]
Outline: as §1

[7] = compound: Cc1cc(SCc2sc(-c3ccc(C(F)(F)F)cc3)nc2C)ccc1OCC(=O)O
Outline: as §1

doramapimod = compound: Cc1ccc(-n2nc(C(C)(C)C)cc2NC(=O)Nc2ccc(OCCN3CCOCC3)c3ccccc23)cc1 [doramapimod]
Outline: as §1

ispinesib = compound: Cc1ccc(C(=O)N(CCCN)[C@@H](c2nc3cc(Cl)ccc3c(=O)n2Cc2ccccc2)C(C)C)cc1 [ispinesib]
Outline: as §1

duvelisib = compound: C[C@H](Nc1ncnc2nc[nH]c12)c1cc2cccc(Cl)c2c(=O)n1-c1ccccc1 [duvelisib]
Outline: as §1

tozasertib = compound: Cc1cc(Nc2cc(N3CCN(C)CC3)nc(Sc3ccc(NC(=O)C4CC4)cc3)n2)n[nH]1 [tozasertib]
Outline: as §1

Measured: log2 fold change

U2AF2 (UniProt P26368)
inactive: [1] 0.038 | filanesib 0.071 | zotarolimus 0.018 | idasanutlin 0.042 | alisertib -0.089 | [2] 0.014 | gefitinib 0.028 | [3] 0.074 | lapatinib -0.013 | pictilisib 0.013 | [4] 0.036 | crizotinib -0.101 | [5] 0.057 | [6] -0.101 | gandotinib 0.036 | [7] 0.063 | doramapimod -0.006 | ispinesib 0.014

UBAC1 (UniProt Q9BSL1)
inactive: [1] 0.004 | filanesib -0.12 | zotarolimus 0.08 | idasanutlin -0.008 | alisertib -0.072 | [2] -0.053 | gefitinib -0.002 | [3] -0.024 | lapatinib -0.011 | pictilisib 0.04 | [4] -0.02 | crizotinib 0 | [5] 0.053 | [6] -0.144 | duvelisib 0.03 | gandotinib -0.13 | tozasertib 0.027 | [7] 0.015 | doramapimod -0.01 | ispinesib 0.018

TSTA3 (UniProt Q13630)
inactive: [1] -0.011 | filanesib -0.028 | zotarolimus -0.004 | idasanutlin -0.037 | alisertib -0.015 | [2] -0.01 | gefitinib -0.002 | [3] 0.004 | lapatinib -0.029 | pictilisib 0.022 | [4] -0.01 | crizotinib 0.041 | [5] 0.062 | [6] -0.056 | duvelisib 0.024 | gandotinib -0.031 | tozasertib -0.042 | [7] -0.034 | doramapimod -0.024 | ispinesib -0.011

TXN2 (UniProt Q99757)
inactive: [1] 0.039 | filanesib 0.015 | zotarolimus 0.211 | idasanutlin 0.108 | alisertib -0.19 | [2] -0.015 | gefitinib 0.042 | [3] -0.023 | lapatinib -0.078 | pictilisib -0.186 | [4] -0.001 | crizotinib 0.128 | [5] -0.047 | gandotinib 0.105 | [7] -0.026 | doramapimod -0.034 | ispinesib 0.028
active: [6] -0.317

TTC38 (UniProt Q5R3I4)
inactive: [1] -0.067 | filanesib -0.023 | zotarolimus 0.034 | idasanutlin -0.093 | alisertib 0.065 | [2] 0.081 | gefitinib 0.013 | [3] -0.003 | lapatinib -0.054 | pictilisib -0.041 | [4] -0.055 | crizotinib -0.085 | [5] -0.085 | [6] -0.073 | gandotinib -0.031 | [7] 0.063 | ispinesib 0.06
active: doramapimod 0.73

TUBB3 (UniProt Q13509)
inactive: [1] 0.106 | filanesib -0.13 | zotarolimus 0.024 | idasanutlin 0.013 | alisertib -0.089 | [2] -0.047 | gefitinib 0.021 | [3] 0.068 | lapatinib 0.03 | pictilisib -0.012 | [4] 0.021 | crizotinib -0.071 | [5] 0.032 | [6] -0.073 | duvelisib 0.004 | gandotinib 0.048 | tozasertib -0.048 | [7] 0.015 | doramapimod -0.003 | ispinesib 0.067

TSG101 (UniProt Q99816)
inactive: [1] 0 | filanesib -0.07 | zotarolimus 0.029 | idasanutlin -0.031 | alisertib -0.049 | [2] 0.007 | gefitinib 0.011 | [3] 0.016 | lapatinib -0.013 | pictilisib 0.025 | [4] 0.035 | crizotinib -0.094 | [5] 0.082 | [6] -0.054 | gandotinib -0.024 | [7] 0.018 | doramapimod 0.009 | ispinesib -0.037

TUBA4A (UniProt P68366)
inactive: [1] 0.032 | filanesib -0.108 | zotarolimus 0.044 | idasanutlin -0.108 | alisertib -0.027 | [2] -0.043 | gefitinib 0.019 | [3] 0.071 | lapatinib 0.04 | pictilisib 0.04 | [4] 0.004 | crizotinib -0.11 | [5] 0.099 | [6] -0.054 | gandotinib 0.014 | [7] 0.208 | doramapimod 0.008 | ispinesib 0.009

TTC27 (UniProt Q6P3X3)
inactive: [1] -0.008 | filanesib 0.164 | zotarolimus 0.077 | idasanutlin 0.049 | alisertib -0.1 | [2] -0.015 | gefitinib 0.048 | [3] -0.212 | lapatinib 0.01 | pictilisib -0.045 | [4] 0.034 | crizotinib -0.237 | [5] -0.072 | [6] 0.27 | duvelisib -0.132 | gandotinib -0.002 | tozasertib 0.085 | [7] 0.222 | doramapimod 0.17 | ispinesib -0.213

UBE2S (UniProt Q16763)
inactive: [1] 0.003 | filanesib 0.01 | zotarolimus 0.045 | idasanutlin -0.05 | alisertib 0.015 | [2] 0.053 | gefitinib -0.009 | [3] 0.001 | lapatinib -0.035 | pictilisib 0.058 | [4] 0.014 | crizotinib 0.079 | [5] 0.003 | [6] -0.067 | gandotinib -0.015 | [7] 0.002 | doramapimod 0.024 | ispinesib 0.1

TXNDC9 (UniProt O14530)
inactive: [1] -0.015 | filanesib -0.045 | zotarolimus 0.044 | idasanutlin -0.018 | alisertib 0.059 | [2] -0.03 | gefitinib -0.015 | [3] 0 | lapatinib 0.027 | pictilisib 0.044 | [4] 0.021 | crizotinib -0.027 | [5] 0.025 | [6] -0.011 | duvelisib 0.028 | gandotinib -0.018 | tozasertib 0.031 | [7] 0.04 | doramapimod 0.034 | ispinesib -0.003

UBAP1 isoform 4 (UniProt Q9NZ09)
inactive: [1] -0.018 | filanesib 0.078 | zotarolimus 0.045 | idasanutlin -0.014 | alisertib -0.034 | [2] -0.017 | gefitinib 0.088 | [3] -0.018 | lapatinib 0.23 | pictilisib -0.005 | [4] -0.003 | crizotinib -0.008 | [5] 0.07 | [6] 0.023 | gandotinib 0.009 | [7] 0.082 | doramapimod 0.044 | ispinesib -0.046

2 neighbouring entries already listed, for reference:
TUBB3 (UniProt Q13509)
inactive: [1] 0.106 | filanesib -0.13 | zotarolimus 0.024 | idasanutlin 0.013 | alisertib -0.089 | [2] -0.047 | gefitinib 0.021 | [3] 0.068 | lapatinib 0.03 | pictilisib -0.012 | [4] 0.021 | crizotinib -0.071 | [5] 0.032 | [6] -0.073 | duvelisib 0.004 | gandotinib 0.048 | tozasertib -0.048 | [7] 0.015 | doramapimod -0.003 | ispinesib 0.067

TSG101 (UniProt Q99816)
inactive: [1] 0 | filanesib -0.07 | zotarolimus 0.029 | idasanutlin -0.031 | alisertib -0.049 | [2] 0.007 | gefitinib 0.011 | [3] 0.016 | lapatinib -0.013 | pictilisib 0.025 | [4] 0.035 | crizotinib -0.094 | [5] 0.082 | [6] -0.054 | gandotinib -0.024 | [7] 0.018 | doramapimod 0.009 | ispinesib -0.037

Going on with the list:

TXNRD1 (UniProt Q16881)
inactive: [1] 0.018 | filanesib -0.101 | zotarolimus 0.006 | idasanutlin -0.144 | alisertib -0.012 | [2] -0.023 | gefitinib 0.026 | [3] 0.052 | lapatinib -0.055 | pictilisib 0.062 | [4] 0.075 | crizotinib -0.043 | [5] 0.079 | [6] -0.053 | gandotinib -0.045 | [7] -0.007 | doramapimod -0.028 | ispinesib -0.009

UBA3 (UniProt Q8TBC4)
inactive: [1] 0.075 | filanesib -0.143 | zotarolimus 0.063 | idasanutlin -0.047 | alisertib -0.013 | [2] 0.027 | gefitinib -0.028 | [3] 0.054 | lapatinib -0.003 | pictilisib 0.028 | [4] 0.039 | crizotinib -0.11 | [5] 0.086 | [6] -0.09 | duvelisib 0.023 | gandotinib -0.111 | tozasertib -0.025 | [7] 0.068 | doramapimod 0.025 | ispinesib -0.017

TXNIP (UniProt Q9H3M7)
inactive: [1] -0.013 | filanesib -0.148 | zotarolimus 0.172 | idasanutlin 0.035 | alisertib -0.198 | [2] -0.074 | gefitinib 0.002 | [3] -0.119 | lapatinib 0.228 | pictilisib 0.142 | [4] 0.05 | crizotinib -0.36 | [5] -0.103 | [6] -0.188 | gandotinib -0.068 | [7] 0.01 | doramapimod 0.113 | ispinesib -0.087

UBAC2 (UniProt Q8NBM4)
inactive: [1] 0.063 | filanesib -0.054 | zotarolimus 0.077 | idasanutlin -0.108 | alisertib 0.108 | [2] -0.075 | gefitinib 0.024 | [3] -0.01 | lapatinib 0.125 | pictilisib 0.004 | [4] -0.03 | crizotinib -0.069 | [5] 0.086 | [6] -0.082 | duvelisib -0.028 | gandotinib -0.059 | tozasertib 0.054 | [7] -0.092 | doramapimod -0.038 | ispinesib -0.096

TUT7 (UniProt Q5VYS8)
inactive: [1] -0.151 | filanesib 0.592 | zotarolimus -0.203 | idasanutlin -0.09 | gefitinib -0.218 | pictilisib 0.07 | [4] 0.059 | crizotinib -0.063 | [5] -0.5 | [6] 0.178 | gandotinib 0.182 | tozasertib 0.251 | doramapimod 0.06
